PubChem BioAssay AID624404 (Broad Institute, 2012)
About 710 (39%) of roughly 1,800 compounds were called active. Inconclusive results, whose numbers are uncertain, are shown with a selection of clear calls.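 How the source made its calls: active means luciferase signal rise whose fitted curve crosses a set activity limit at or below the top valid tested dose; inconclusive means flat fit with 30 to 70% rise, or poor fit; inactive means signal falling, flat within 30%, or crossing above top dose.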

Assay: luciferase activators in glycosylation-insensitive reporter cells, dose response, counter-screen for N-linked glycosylation inhibitor project, D54 LucT cells, luminescence, cherry pick (AID 624404);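 further: 0% = median neutral control signal and 100% = twice that signal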
Conditions: D54 LucT luciferase reporter counterscreen, 24 h; at 19.5 µM (top of the series) unless noted

SMILES	activity increase (luciferase signal)
CCOC(=O)COc1cccc2c(=O)n(CC(=O)NCc3ccccc3)ccc12	inconclusive: 43%
CC(C)(C)c1nnc2sc(SCC(=O)c3ccc4c(c3)OCCO4)nn2c1=O	inactive: -0.962%
CCOc1ccc(Cl)cc1C1=CC(=O)C[C@H](c2ccc(OC)cc2)C1	inconclusive: 64.7% [at 5 µM]
O=C(/C=C/c1cccnc1)c1ccc([N+](=O)[O-])cc1	inconclusive: 67%
CCc1cccc(NC(=O)c2cc(S(=O)(=O)N(C)C)ccc2N2CCCC2)c1	inactive: 23%
Cn1c(=O)[nH]c(=O)c2c1nc(N/N=C/c1cccnc1)n2Cc1ccc(Cl)cc1	inconclusive: 48.1%
COC(=O)COc1cccc2c(=O)n(CC(=O)NCc3ccccc3)ccc12	inactive: 51.9%
COc1ccc2nc3n(c(=O)c2c1)-c1cc2ccccc2cc1C(=O)NC3Cc1ccccc1 (stereo not drawn)	inactive: -29.2%
COc1cc(N)ccc1Nc1c2ccccc2nc2ccccc12	inconclusive: 38.2% [at 5 µM]
COc1cc(OC)cc(C(=O)c2c(C)c(C#N)c3ccccn23)c1	inactive: -23.7%
Cc1cc(=O)[nH]c(N/N=C/c2cc(C)n(CC(F)(F)F)c2C)n1	inconclusive: 115%
CC1CCC2(CC1)NC(=O)N(CC(=O)Nc1ccc3c(c1)CCC3)C2=O (stereo not drawn)	inconclusive: 49.1%
Cc1cc(C)c(C)c(OC(=O)c2sc(Cl)nc2C)c1	inactive: -28.2%
O=C(N/N=C\c1ccc(CNS(=O)(=O)c2ccc(Cl)cc2)o1)C(=O)Nc1ccc(Oc2ccccc2)cc1	inconclusive: -15.3%
COc1cc(C(=O)OCC(C)=O)ccc1OCc1c(C)noc1C	inconclusive: 36.5%
COC(=O)c1cc(OC)c(OC)cc1NC(=S)NC(=O)c1ccco1	inactive: 17.6%
Cc1cc(NC(=O)NC(=O)c2ccccc2NC(=O)CN)ccc1Oc1ncc(Br)cn1	inconclusive: 37.4%
CNc1ccc(/C=C/C(=O)c2cccc3ccccc23)cc1[N+](=O)[O-]	inconclusive: 184%
NC(=O)C1CCN(C2=C(Cl)C(=O)c3ccccc3C2=O)CC1	inconclusive: 92.6%
COc1ccccc1N1CCN(S(=O)(=O)CCNC(=O)c2cc(OC)c(OC)c(OC)c2)CC1	inactive: 28.3%
COC(=O)CNC(c1ccccc1)c1cc(Br)ccc1NC(=O)CCN1CCOCC1 (stereo not drawn)	inactive: 8.3%
NC1=NC(c2ccc(Cl)cc2)C(C(=O)c2ccccc2)N1 (stereo not drawn)	inconclusive: 44.6%
COc1cc(C(=O)OCCc2cc3ccccc3c(=O)o2)cc(OC)c1OC	inconclusive: 27.3%
O=C(CCl)Nc1cn(-c2ccccc2)nc1-c1ccc(F)cc1	inactive: -69.3%

SMILES	activity increase (luciferase signal)
COc1ccc(/C=C/C(=O)c2ccc3c4c(cccc24)CC3)cc1OC	inactive: -2.39%
COc1ccc(C(=O)CC(SCC(NC(C)=O)C(=O)O)c2ccc(Cl)cc2)cc1OC (stereo not drawn)	inconclusive: 39.6%
Cc1nc([N+](=O)[O-])c(Br)n1Cc1ccc(Cl)c(Cl)c1	inconclusive: 89%
CN(C)CCN1C(=O)c2cccc3cc([N+](=O)[O-])cc(c23)C1=O	inconclusive: 120%
COc1ccc2c(c1)c(C(=O)N/N=C/c1ccc(Br)cc1)c(C)n2C	inconclusive: 40.2%
O=C(c1cccc(N2CCCC2=O)c1)N1CCN(c2cccc(Cl)c2)CC1	inconclusive: 45.1%
O=C1CCNc2cc3ccccc3cc21	inconclusive: 51.4%
O=C(NCc1ccco1)C1CC(c2ccc(C(F)(F)F)cc2)=NO1 (stereo not drawn)	inconclusive: 64.5%
COc1ccc(/C=C/C(=O)c2ccc3c(c2)OCCO3)cc1[N+](=O)[O-]	inconclusive: 43.2%
COc1cccc(C2=NOC(C(=O)NCc3ccco3)C2)c1 (stereo not drawn)	inconclusive: 84.1%
CCOc1ccc(N(C)S(=O)(=O)c2ccc(-c3cc(C)no3)s2)cc1	inconclusive: 63.2%
COc1ccc(S(=O)Cc2ccc(C(=O)N3CCN(c4cccc(C)c4C)CC3)o2)cc1 (stereo not drawn)	inconclusive: 37.1%
CCOC(=O)C1=C(C)N=C2SC=C(C)N2C1c1ccc(OC)cc1 (stereo not drawn)	inconclusive: 15.9%
CCN(CC)CCNc1ccc(C)c2sc3ccc(O)cc3c(=O)c12	inconclusive: 102%
COc1cc(OC)cc(C(=O)N2CC(=O)Nc3ccccc32)c1	inconclusive: 28.5%
Cn1nc(C(F)(F)F)c(/C=N/OC(=O)c2ccccc2Cl)c1SCc1ccccc1Cl	inactive: -45.1%
Cc1ccc(-n2nc(C)c(NC(=O)CCl)c2C)cc1C	inconclusive: 47.3%
COc1ccc(NC(=O)C2Cc3c(-c4cccc(NC(C)=O)c4)ccnc3O2)cn1 (stereo not drawn)	inconclusive: 67.6%
COc1cc(CNc2ccc(O)cc2)cc(Br)c1OCc1ccccc1	inactive: 23.2%
COc1ccc(-c2ccc(C(c3c(C)[nH][nH]c3=O)c3c(C)[nH][nH]c3=O)o2)c([N+](=O)[O-])c1	inconclusive: 39.8%
O=C(Nc1cccc(-n2cnnn2)c1)c1cc(Cl)ccc1Cl	inactive: 19.6%
COc1ccc(Nc2cc(C)nc3ccc(OC)cc23)cc1	inactive: 1.85%
CC(=O)c1cccc(-c2ccnc3c2CC(C(=O)NCc2cccs2)O3)c1 (stereo not drawn)	inactive: 31.3%
CCN1/C(=C/c2sc(-c3ccccc3C)c[n+]2C)Sc2ccccc21	inactive: -54.8%

Gathered by group: the compounds so far with four or more nitrogen atoms.
SMILES	activity increase (luciferase signal)
CC(C)(C)c1nnc2sc(SCC(=O)c3ccc4c(c3)OCCO4)nn2c1=O	inactive: -0.962%
Cn1c(=O)[nH]c(=O)c2c1nc(N/N=C/c1cccnc1)n2Cc1ccc(Cl)cc1	inconclusive: 48.1%
Cc1cc(=O)[nH]c(N/N=C/c2cc(C)n(CC(F)(F)F)c2C)n1	inconclusive: 115%
O=C(N/N=C\c1ccc(CNS(=O)(=O)c2ccc(Cl)cc2)o1)C(=O)Nc1ccc(Oc2ccccc2)cc1	inconclusive: -15.3%
Cc1cc(NC(=O)NC(=O)c2ccccc2NC(=O)CN)ccc1Oc1ncc(Br)cn1	inconclusive: 37.4%
COc1ccc(NC(=O)C2Cc3c(-c4cccc(NC(C)=O)c4)ccnc3O2)cn1 (stereo not drawn)	inconclusive: 67.6%
COc1ccc(-c2ccc(C(c3c(C)[nH][nH]c3=O)c3c(C)[nH][nH]c3=O)o2)c([N+](=O)[O-])c1	inconclusive: 39.8%
O=C(Nc1cccc(-n2cnnn2)c1)c1cc(Cl)ccc1Cl	inactive: 19.6%

Some of the entries so far, bar-delimited:
SMILES | activity increase (luciferase signal)
CCOc1ccc(N(C)S(=O)(=O)c2ccc(-c3cc(C)no3)s2)cc1 | inconclusive: 63.2%
CCOC(=O)C1=C(C)N=C2SC=C(C)N2C1c1ccc(OC)cc1 (stereo not drawn) | inconclusive: 15.9%
